Results taken from paper PMC12645137 (Current Neuropharmacology, 2025).

Test: DPPH antioxidant assay
Type: physicochemical
Details: 517 nm
Protocol: To evaluate the in-vitro antioxidant potential of the synthesized derivatives, a previously reported 1,1 Diphenyl, 2 Picrylhydrazyl (DPPH) assay was utilized. The DPPH solution was prepared by dissolving twenty-four mg DPPH in methanol (100 ml). Test sample solutions in various concentrations (62.50 to 1000 μg/mL) were also prepared. From each dilution, 1 ml sample solution was taken to which 1 ml solution of DPPH was added. The solution mixture was incubated at 23°C for 30 minutes in the dark and then subjected to a UV-visible spectrophotometer to note the absorbance at 517 nm. The absorbance values of all samples were taken in triplicate. Ascorbic acid served as positive control, while negative control only contained a solution of DPPH having no test samples. The % free radical scavenging potential of our compounds was determined by the given formula.
% free radical scavenging activity = [drawing 2] x100
X is the control absorbance, whereas X1 is the absorbance of the test sample.

Row | SMILES | Absorbance (DPPH) (62.5 µg/ml) | Absorbance (DPPH) (125 µg/ml) | Absorbance (DPPH) (250 µg/ml) | Absorbance (DPPH) (500 µg/ml) | Absorbance (DPPH) (1000 µg/ml)
1 | C/C(=N/Cc1ccc(C)cc1)[C@H]1CC[C@H]2[C@@H]3CCC4=CC(=O)CC[C@]4(C)[C@H]3CC[C@]12C [AN2, (8S,9S,10R,13S,14S)-17-((Z)-1-((4-methylbenzyl)imino)ethyl)-10,13-dimethyl-1,2,6,7,8,9,10,11,12,13,14,15,16,17-tetradecahydro-3H-cyc-lopenta[a]phenanthren-3-one] | 0.331 | 0.318 | 0.256 | 0.252 | 0.213
2 | O=C1O[C@H]([C@@H](O)CO)C(O)=C1O [Ascorbic Acid, Ascorbic acid, reference compound] | 0.241 | 0.215 | 0.190 | 0.104 | 0.066
3 | C/C(=N/Cc1ccccc1)[C@H]1CC[C@H]2[C@@H]3CCC4=CC(=O)CC[C@]4(C)[C@H]3CC[C@]12C [AN5, (8S,9S,10R,13S,14S)-17-((Z)-1-(benzylimino)ethyl)-10,13-dimethyl-1,2,6,7,8,9,10,11, 12,13,14,15,16,17-tetradecahydro-3H cyclopenta[a]phenan-thren-3-one] | 0.357 | 0.321 | – | 0.243 | 0.201
4 | COc1ccc(C/N=C(/C)[C@H]2CC[C@H]3[C@@H]4CCC5=CC(=O)CC[C@]5(C)[C@H]4CC[C@]23C)cc1 [AN1, (8S,9S,10R,13S,14S)-17-((Z)-1-((4-methoxybenzyl)imino)ethyl)-10,13-dimethyl-1,2,6,7,8,9,10,11,12,13,14,15,16,17-tetradecahydro-3H-cyc-lopenta[a]phenanthren-3-one] | 0.325 | 0.242 | 0.224 | 0.178 | 0.124
5 | COc1ccc(C/N=C(/C)[C@H]2CC[C@H]3[C@@H]4CCC5=CC(=O)CC[C@]5(C)[C@H]4CC[C@]23C)cc1OC [AN3, (8S,9S,10R,13S,14S,17S)-17-((Z)-1-((3,4-dimethoxybenzyl)imino)ethyl)-10,13-dimethyl-1,2,6,7,8,9,10,11,12,13,14,15,16,17-tetradecahydro-3H-cyclo-penta[a]phenanthren-3-one] | 0.342 | 0.322 | 0.290 | 0.251 | 0.207
6 | C/C(=N/Cc1ccc(Cl)cc1)[C@H]1CC[C@H]2[C@@H]3CCC4=CC(=O)CC[C@]4(C)[C@H]3CC[C@]12C [AN4, (8S,9S,10R,13S,14S,17S)-17-((Z)-1-((4-chlorobenzyl)imino)ethyl)-10,13-dimethyl-1,2,6,7,8,9,10,11,12,13,14,15,16,17-tetradecahydro-3H-cyclopenta [a]phenanthren-3-one] | 0.397 | 0.332 | 0.294 | 0.248 | 0.225
